{"source": "PubChem BioAssay AID1259254 (NCATS, 2017)", "screen": "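Genome-wide screen for genes that prevent DNA re-replication in cancer cells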 (primary screen)", "cells": "human HCT116 colorectal cancer cells", "reagents": "single siRNA against human genes", "duration": "3 days", "read-out": "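Imaged Hoechst DNA stain sorts each cell into a cycle phase by DNA amount; per plate, G2 fraction set to 0% for non-targeting and 100% for GMNN siRNA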", "reading the numbers": "G2 robust z-score and G2 cells, % of GMNN control: higher = more G2 cells, more excess DNA replication", "rule for the call": "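An siRNA counts as active if its G2 robust z-score lies at least 5 MADs above the screen median; here such calls match roughly 38% of GMNN control or more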", "note": "The whole screen tested about 59,000 reagents; this is an unselected part. About 1,550 of all reagents (2.6%) were called active. 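G2 share is only a proxy for re-replication; each gene was hit by three separate siRNAs, and active genes were retested.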 Entries without a mark were called inactive. Reagents against one gene are numbered here. Further read-outs or replicates are left out here. Not given: the amount of reagent."}
{"gene": "ZNHIT1 (GeneID 10467)", "reagent no.": 1, "G2 robust z-score": -0.994, "G2 cells, % of GMNN control": -4.02}
{"gene": "ZNHIT1 (GeneID 10467)", "reagent no.": 2, "G2 robust z-score": -0.829, "G2 cells, % of GMNN control": -2.87}
{"gene": "ZNHIT1 (GeneID 10467)", "reagent no.": 3, "G2 robust z-score": 2.59, "G2 cells, % of GMNN control": 21.2}
{"gene": "BCDIN3D (GeneID 144233)", "reagent no.": 1, "G2 robust z-score": -0.994, "G2 cells, % of GMNN control": -4.02}
{"gene": "BCDIN3D (GeneID 144233)", "reagent no.": 2, "G2 robust z-score": -0.109, "G2 cells, % of GMNN control": 2.2}
{"gene": "BCDIN3D (GeneID 144233)", "reagent no.": 3, "G2 robust z-score": 3.3, "G2 cells, % of GMNN control": 26.2}
{"gene": "MPST (GeneID 4357)", "reagent no.": 1, "G2 robust z-score": -0.694, "G2 cells, % of GMNN control": -1.92}
{"gene": "MPST (GeneID 4357)", "reagent no.": 2, "G2 robust z-score": -0.0934, "G2 cells, % of GMNN control": 2.31}
{"gene": "MPST (GeneID 4357)", "reagent no.": 3, "G2 robust z-score": -1.32, "G2 cells, % of GMNN control": -6.33}
{"gene": "HTR2C (GeneID 3358)", "reagent no.": 1, "G2 robust z-score": -1.11, "G2 cells, % of GMNN control": -4.86}
{"gene": "HTR2C (GeneID 3358)", "reagent no.": 2, "G2 robust z-score": -1.22, "G2 cells, % of GMNN control": -5.63}
{"gene": "HTR2C (GeneID 3358)", "reagent no.": 3, "G2 robust z-score": 0.615, "G2 cells, % of GMNN control": 7.29}
{"gene": "OR5H1 (GeneID 26341)", "reagent no.": 1, "G2 robust z-score": -0.913, "G2 cells, % of GMNN control": -3.45}
{"gene": "OR5H1 (GeneID 26341)", "reagent no.": 2, "G2 robust z-score": 0.452, "G2 cells, % of GMNN control": 6.15}
{"gene": "OR5H1 (GeneID 26341)", "reagent no.": 3, "G2 robust z-score": 3.69, "G2 cells, % of GMNN control": 28.9}
{"gene": "MADCAM1 (GeneID 8174)", "reagent no.": 1, "G2 robust z-score": 1.34, "G2 cells, % of GMNN control": 12.4}
{"gene": "MADCAM1 (GeneID 8174)", "reagent no.": 2, "G2 robust z-score": -0.587, "G2 cells, % of GMNN control": -1.16}
{"gene": "MADCAM1 (GeneID 8174)", "reagent no.": 3, "G2 robust z-score": 3.14, "G2 cells, % of GMNN control": 25.1}

A stretch from the list above:
{"gene": "MPST (GeneID 4357)", "reagent no.": 2, "G2 robust z-score": -0.0934, "G2 cells, % of GMNN control": 2.31}
{"gene": "MPST (GeneID 4357)", "reagent no.": 3, "G2 robust z-score": -1.32, "G2 cells, % of GMNN control": -6.33}
